## Library screening results

Measurements from “University of Dundee, Small-Polar-MMV Screening Library” (2021), ChEMBL document CHEMBL3988442.

A: 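Whole-cell assay for inhibitors of Mycobacterium tuberculosis growth, labelled Cornell in the record; the read-out is not stated. The concentration is filed as 10 mM, unlikely as a test dose, so the dose is not known. The record gives no direction; compounds strong in two other growth screens of this library score well above the rest, so higher reads as stronger inhibition. Of about 53,000 compounds tested this way, about 900 (1.7%) reached 50% or more in at least one test.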
B: 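Assay on Mycobacterium tuberculosis, filed only as a heat shock assay from Cornell; the read-out is not stated. The concentration is filed as 10 mM, unlikely as a test dose, so the dose is not known. Higher reads as stronger inhibition (inferred: compounds with an IC50 in retests scored well above the rest). Size under these conditions: about 69,000 compounds, about 930 of them at 50% or above in at least one test.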

Values are the deposited “Percent Effect”, in %. The controls that fix the scale are not given in the record; negative values are as filed. The compounds are a random part of those screened. A dash means the value is not listed here; it may have been measured.

SMILES	A	B
CCc1nc(C2CCCN(C(=O)CC3CCOCC3)C2)no1 (stereo not shown)	-	-2.15
COCC(NC(=O)c1ccc[nH]1)c1cccc(C(F)(F)F)c1 (stereo not shown)	-1.326	-1.071
c1ccc(CN2CCCC(c3nccnc3-n3ccnc3)C2)cc1 (stereo not shown)	-	-4.965
CCN1CC2(CCC1=O)CCN(Cc1cscn1)CC2	8.13	-11.1
O=C(O)C(F)(F)F.[H][C@@]12COC[C@]1([H])[C@@H](OCC(=O)N(C)C)CN2Cc1c(C)noc1C	-7.68	-9.613
Cc1cc2c(cc1NC(=O)NCC(C)C)OCO2	15.15	-6.885
Cc1ccc(N2CCN(C(=O)C(O)c3cccc(Cl)c3)CC2=O)cc1 (stereo not shown)	15.16	8.977
CNC(=O)c1cn[nH]c1C1CCCN1C(=O)c1ccccn1 (stereo not shown)	-35.37	16.54
O=C(O)C(F)(F)F.[H][C@]12CCC(=O)N(c3ccccc3)[C@@]1([H])CCN2c1ncc(F)cn1	2.624	11.33
Cc1nc(-c2ccoc2)n(CC(=O)N(C)CC(C)C)c1C	4.516	7.176
COCCC1CCCCN1Cc1nc(Cc2cccc(F)c2)no1 (stereo not shown)	17.24	-17.52
Cn1cc(CN2CCc3onc(C(=O)N4CCCC4)c3C2)cn1.O=C(O)C(F)(F)F	9.862	-6.406
CCS(=O)(=O)N1Cc2nccn2CC(Cn2cccn2)C1 (stereo not shown)	1.516	6.177
Cc1ncc2c(n1)CN(Cc1nc3c(F)cccc3[nH]1)CC2	12.3	17.6
CCOc1cc(CNC(=O)c2cnn(CC)c2C(F)(F)F)ccn1	1.827	7.423
Cc1ccccc1C(=O)Nc1cnn(CCN2CCOCC2)c1	-	-19
c1cnnc(N2CCCC(NCc3cccc4c3OCCO4)C2)c1 (stereo not shown)	-	-18.06
CNC(=O)c1n[nH]c2c1C(c1cccc3nsnc13)CC(=O)N2 (stereo not shown)	-4.137	-2.871
Cc1cc(C)n(-c2ccc(NCCNS(=O)(=O)c3ccccc3)nn2)n1	-	7.275
O=C(O)C(F)(F)F.O=C1CCCN1CC1CN(CC2CCOCC2)Cc2nccn2C1 (stereo not shown)	18.79	14.1
CCNc1ncc(C2CC(=O)Nc3c2cnn3Cc2ccncc2)cn1 (stereo not shown)	-4.131	-44.79
CCc1nc(CNc2ccc(C(=O)N3CCSCC3)cc2C)no1	-35.63	-8.589
[H][C@@]12CN(c3ncc(C)cn3)C[C@@]1([H])N(CC1CC1)C(=O)CO2	-6.102	-8.05
CC(C)NC(=O)Nc1ccc(CNCc2ccc(OC(F)F)cc2)cc1	-	1.53
Cc1cc(C(=O)Nc2nnn[nH]2)ccc1I	-	-11.36
Nc1cc(-c2c[nH]nc2C2CCN(C(=O)C3CCCC3)C2)ccn1 (stereo not shown)	38.88	-3.104
O=C(O)C(F)(F)F.O=C(O)C(F)(F)F.O=C(O)C(F)(F)F.[H][C@]12C[C@H](C(=O)NCC3CC3)N(C)[C@@]1([H])CN(Cc1csc(C)n1)C2	-25.01	-17.18
CC(=O)c1ccc(C(=O)NCc2cccnc2N2CCCC(O)C2)s1 (stereo not shown)	26.17	10.7
COc1ccccc1N1CCC(CNS(=O)(=O)c2cccc(C#N)c2)C1 (stereo not shown)	-33.41	-17.81
Cc1nnc(NC(=O)CSCc2cc(=O)n3ccccc3n2)s1	-	-33.66
CC(C)CCNC(=O)c1sccc1N(C)S(=O)(=O)c1ccccc1	-18.63	-8.437
CCn1nc2nc(SCC(=O)O)cc(C(F)F)c2c1C	8.067	-3.761
[H][C@@]12CCN(CC3CC3)C[C@]1([H])OCCN(c1cccnc1)C2=O	-5.692	-17.69
CN(CC1(O)CCCN(CCC2CCCCC2)C1=O)C1CCOCC1 (stereo not shown)	23.25	-5.052
[H][C@@]12CN(Cc3c(C)noc3C)C[C@]1([H])CN(C(=O)c1cscn1)C2	7.41	-35.83
CN(C)c1ccc(C(=O)NCC2(c3ccccc3)CCOCC2)cc1	-	-8.457
Cn1c2ccc(F)cc2c2ncn(CCN3CCOCC3)c(=O)c21	-10.55	-20.73
CCn1cc(NC(=O)NCC(c2ccsc2)N(C)C)cn1 (stereo not shown)	-	-20.03
O=C1CC(c2ccncc2)c2c(c(C(=O)O)cn2-c2ccccc2)N1 (stereo not shown)	22.18	13.13
CN(Cc1noc2c1CCCC2)C(=O)Nc1cccc(S(N)(=O)=O)c1	-9.536	-3.837
Cc1nc(N)c2ccc(C3CCCN3)nc2n1.Cl (stereo not shown)	47.49	-2.129
O=C(O)C(F)(F)F.[H][C@]12CCC[C@@]1(COC)CN(C(=O)CN(C)C)C2	1.062	3.336
O=C1NCC2(CCCN(Cc3ccc(Cl)s3)C2)Oc2ccccc21 (stereo not shown)	-	18.48
N#Cc1cc(NC(=O)c2ccccn2)ccc1N1CCC(O)CC1	26.11	10.82
CCn1cc(NC(=O)NCCc2ccc3c(c2)OCCO3)cn1	-	-1.555
Cl.O=C(O)C1(Cc2ccc(-c3cccs3)cc2)CCNC1 (stereo not shown)	2.169	-12.78
COc1ccc2cc(C(=O)NCCc3nc(C)no3)[nH]c2c1	-16.34	6.057
CN(Cc1noc(C2CC2)n1)C1CCN(CCn2cc(C#N)cn2)C1 (stereo not shown)	-30.66	-13.74
Cn1cccc(NC(=O)N2CCC(COCc3ccccc3)C2)c1=O (stereo not shown)	-24.12	6.121
Cc1cc(C[S+]([O-])Cc2ccccc2F)on1 (stereo not shown)	-	3.277
CC(CN1CCCC1=O)NC(=O)c1cc(-c2cccc(Cl)c2)no1 (stereo not shown)	17.8	12.07
[H][C@@]12OCCN(S(=O)(=O)C3CC3)[C@@]1([H])CC[C@H]2OC	39.24	-1.875
NC(=O)CC1CCN(C(=O)NCc2cccc(-n3cccn3)c2)CC1	12.94	3.597
COCCn1cncc1Cn1cccc(C(F)(F)F)c1=O	-14.97	-4.442
O=C(N1CCCC1)N1CCn2c(nnc2C2CCCN2)C1 (stereo not shown)	-	-20
Cc1cnn(CCNCc2c(C)nn(CCO)c2C)c1	4.212	10.27
CC(NCc1ccc(OCC(N)=O)cc1)c1ccc(Cl)c(Cl)c1.Cl (stereo not shown)	10.98	-36.27
Cc1n[nH]c2c1C(c1ccc3c(c1)OCO3)SCC(=O)N2 (stereo not shown)	-	-36.95
Cc1nsc(N2CCCN(C(=O)c3ccc4[nH]ccc4c3)CC2)n1	23.77	17.29
CCC[C@@H]1CN(C(=O)c2cc(-c3cccs3)n(C)n2)C[C@H]1NS(C)(=O)=O	21.18	-2.784

Repeated from the top, 7 entries:

SMILES	A	B
CCc1nc(C2CCCN(C(=O)CC3CCOCC3)C2)no1 (stereo not shown)	-	-2.15
COCC(NC(=O)c1ccc[nH]1)c1cccc(C(F)(F)F)c1 (stereo not shown)	-1.326	-1.071
c1ccc(CN2CCCC(c3nccnc3-n3ccnc3)C2)cc1 (stereo not shown)	-	-4.965
CCN1CC2(CCC1=O)CCN(Cc1cscn1)CC2	8.13	-11.1
O=C(O)C(F)(F)F.[H][C@@]12COC[C@]1([H])[C@@H](OCC(=O)N(C)C)CN2Cc1c(C)noc1C	-7.68	-9.613
Cc1cc2c(cc1NC(=O)NCC(C)C)OCO2	15.15	-6.885
Cc1ccc(N2CCN(C(=O)C(O)c3cccc(Cl)c3)CC2=O)cc1 (stereo not shown)	15.16	8.977